Measured values reported in patent publication US20240335537A1.
Results are given in words; binding and its absence hold for the method and conditions named. Some binding calls cover weakened binding; strength is not graded here.

Amino acid sequences for entries named in this document (tags omitted). A change or cut given only in a name is not applied to a line headed by its entry. Residues count along the entry.
UniProt P48023, residues 134-281: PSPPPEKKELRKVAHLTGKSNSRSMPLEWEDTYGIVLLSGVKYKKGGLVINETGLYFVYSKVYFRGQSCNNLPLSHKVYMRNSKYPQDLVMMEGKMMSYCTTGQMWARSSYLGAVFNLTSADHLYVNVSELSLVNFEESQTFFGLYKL
UniProt P25445: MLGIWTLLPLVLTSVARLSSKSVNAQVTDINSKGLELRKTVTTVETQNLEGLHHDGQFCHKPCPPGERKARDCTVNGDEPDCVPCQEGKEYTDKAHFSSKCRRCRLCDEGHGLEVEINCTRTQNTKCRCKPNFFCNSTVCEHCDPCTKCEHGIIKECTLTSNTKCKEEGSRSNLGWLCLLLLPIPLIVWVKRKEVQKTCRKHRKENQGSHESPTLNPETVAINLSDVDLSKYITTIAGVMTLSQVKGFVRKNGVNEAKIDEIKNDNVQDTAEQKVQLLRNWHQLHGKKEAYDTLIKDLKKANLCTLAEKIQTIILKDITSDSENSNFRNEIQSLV

Biological target: Recombinant Fas ligand (BioLegend) (UniProt P48023)
Test: ELISA-based neutralization assay with conditioned medium

Fas Decoy (FD) (from UniProt P25445 26-173) (receptor)
binding: binds
